Measured values: the supplement of paper PMC10849652
Some of the results follow.

Protein sequences, listed by entry. Tags and fused reporters are not part of them. Lines headed by an entry give the natural chain unless they say otherwise; changes in a name come on top.
UniProt P06576, whole entry, looked up: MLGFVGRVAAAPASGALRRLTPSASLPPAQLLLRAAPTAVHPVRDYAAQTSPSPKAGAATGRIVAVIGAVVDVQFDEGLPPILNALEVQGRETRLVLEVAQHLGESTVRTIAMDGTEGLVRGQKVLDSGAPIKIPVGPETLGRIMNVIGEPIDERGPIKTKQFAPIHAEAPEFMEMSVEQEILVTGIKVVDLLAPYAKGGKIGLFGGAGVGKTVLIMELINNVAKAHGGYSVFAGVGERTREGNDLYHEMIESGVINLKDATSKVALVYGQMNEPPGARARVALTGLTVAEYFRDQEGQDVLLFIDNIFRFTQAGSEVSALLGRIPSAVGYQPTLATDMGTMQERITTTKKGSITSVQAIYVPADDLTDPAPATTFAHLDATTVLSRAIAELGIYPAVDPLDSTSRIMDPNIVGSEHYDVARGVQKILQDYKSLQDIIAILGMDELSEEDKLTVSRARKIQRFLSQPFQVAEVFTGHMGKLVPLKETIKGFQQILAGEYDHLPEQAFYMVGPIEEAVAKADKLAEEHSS
UniProt O95260: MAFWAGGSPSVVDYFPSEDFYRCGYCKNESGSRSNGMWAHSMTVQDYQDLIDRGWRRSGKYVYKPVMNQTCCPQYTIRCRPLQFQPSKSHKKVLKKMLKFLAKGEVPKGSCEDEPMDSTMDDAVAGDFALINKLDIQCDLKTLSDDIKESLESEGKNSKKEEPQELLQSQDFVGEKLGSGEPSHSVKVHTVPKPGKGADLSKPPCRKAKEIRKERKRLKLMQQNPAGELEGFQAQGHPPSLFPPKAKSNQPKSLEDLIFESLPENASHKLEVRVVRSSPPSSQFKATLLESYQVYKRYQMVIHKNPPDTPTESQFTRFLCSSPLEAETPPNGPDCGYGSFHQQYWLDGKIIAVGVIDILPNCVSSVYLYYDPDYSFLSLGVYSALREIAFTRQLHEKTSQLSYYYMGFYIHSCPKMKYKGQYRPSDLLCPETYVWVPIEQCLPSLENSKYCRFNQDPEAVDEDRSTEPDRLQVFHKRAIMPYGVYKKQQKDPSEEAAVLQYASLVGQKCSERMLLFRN
UniProt Q9NWX5: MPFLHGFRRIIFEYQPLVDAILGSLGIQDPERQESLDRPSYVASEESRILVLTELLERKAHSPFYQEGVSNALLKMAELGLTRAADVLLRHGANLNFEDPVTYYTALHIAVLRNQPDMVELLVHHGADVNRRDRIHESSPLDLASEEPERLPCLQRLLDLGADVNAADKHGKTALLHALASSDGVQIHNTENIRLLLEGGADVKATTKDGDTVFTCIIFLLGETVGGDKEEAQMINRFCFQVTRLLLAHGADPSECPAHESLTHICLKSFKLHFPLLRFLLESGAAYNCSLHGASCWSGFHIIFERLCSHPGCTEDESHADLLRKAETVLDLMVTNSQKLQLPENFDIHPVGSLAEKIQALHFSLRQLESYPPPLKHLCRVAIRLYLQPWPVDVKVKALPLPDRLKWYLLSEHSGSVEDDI
UniProt Q9Y6H3: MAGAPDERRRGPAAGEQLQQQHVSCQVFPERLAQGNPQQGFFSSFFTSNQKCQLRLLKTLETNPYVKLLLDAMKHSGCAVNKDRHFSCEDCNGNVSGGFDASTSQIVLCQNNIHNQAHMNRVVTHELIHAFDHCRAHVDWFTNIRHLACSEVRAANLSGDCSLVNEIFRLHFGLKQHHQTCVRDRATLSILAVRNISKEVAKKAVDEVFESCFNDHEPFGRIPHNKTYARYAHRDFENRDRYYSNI
UniProt O75143: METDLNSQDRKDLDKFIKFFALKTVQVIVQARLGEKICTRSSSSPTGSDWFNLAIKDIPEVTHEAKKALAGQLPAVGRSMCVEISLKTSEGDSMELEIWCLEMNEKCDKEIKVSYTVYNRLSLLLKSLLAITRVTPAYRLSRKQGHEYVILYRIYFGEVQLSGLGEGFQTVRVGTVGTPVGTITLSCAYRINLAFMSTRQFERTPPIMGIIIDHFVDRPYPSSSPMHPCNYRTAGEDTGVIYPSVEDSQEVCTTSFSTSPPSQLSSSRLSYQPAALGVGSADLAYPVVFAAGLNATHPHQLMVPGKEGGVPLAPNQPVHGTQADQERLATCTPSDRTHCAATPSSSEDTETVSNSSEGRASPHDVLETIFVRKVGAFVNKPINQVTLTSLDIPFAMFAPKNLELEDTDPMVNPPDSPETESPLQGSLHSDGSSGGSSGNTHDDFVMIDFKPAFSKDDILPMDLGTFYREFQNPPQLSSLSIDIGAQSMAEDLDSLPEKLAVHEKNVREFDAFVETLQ
UniProt Q9NQ11: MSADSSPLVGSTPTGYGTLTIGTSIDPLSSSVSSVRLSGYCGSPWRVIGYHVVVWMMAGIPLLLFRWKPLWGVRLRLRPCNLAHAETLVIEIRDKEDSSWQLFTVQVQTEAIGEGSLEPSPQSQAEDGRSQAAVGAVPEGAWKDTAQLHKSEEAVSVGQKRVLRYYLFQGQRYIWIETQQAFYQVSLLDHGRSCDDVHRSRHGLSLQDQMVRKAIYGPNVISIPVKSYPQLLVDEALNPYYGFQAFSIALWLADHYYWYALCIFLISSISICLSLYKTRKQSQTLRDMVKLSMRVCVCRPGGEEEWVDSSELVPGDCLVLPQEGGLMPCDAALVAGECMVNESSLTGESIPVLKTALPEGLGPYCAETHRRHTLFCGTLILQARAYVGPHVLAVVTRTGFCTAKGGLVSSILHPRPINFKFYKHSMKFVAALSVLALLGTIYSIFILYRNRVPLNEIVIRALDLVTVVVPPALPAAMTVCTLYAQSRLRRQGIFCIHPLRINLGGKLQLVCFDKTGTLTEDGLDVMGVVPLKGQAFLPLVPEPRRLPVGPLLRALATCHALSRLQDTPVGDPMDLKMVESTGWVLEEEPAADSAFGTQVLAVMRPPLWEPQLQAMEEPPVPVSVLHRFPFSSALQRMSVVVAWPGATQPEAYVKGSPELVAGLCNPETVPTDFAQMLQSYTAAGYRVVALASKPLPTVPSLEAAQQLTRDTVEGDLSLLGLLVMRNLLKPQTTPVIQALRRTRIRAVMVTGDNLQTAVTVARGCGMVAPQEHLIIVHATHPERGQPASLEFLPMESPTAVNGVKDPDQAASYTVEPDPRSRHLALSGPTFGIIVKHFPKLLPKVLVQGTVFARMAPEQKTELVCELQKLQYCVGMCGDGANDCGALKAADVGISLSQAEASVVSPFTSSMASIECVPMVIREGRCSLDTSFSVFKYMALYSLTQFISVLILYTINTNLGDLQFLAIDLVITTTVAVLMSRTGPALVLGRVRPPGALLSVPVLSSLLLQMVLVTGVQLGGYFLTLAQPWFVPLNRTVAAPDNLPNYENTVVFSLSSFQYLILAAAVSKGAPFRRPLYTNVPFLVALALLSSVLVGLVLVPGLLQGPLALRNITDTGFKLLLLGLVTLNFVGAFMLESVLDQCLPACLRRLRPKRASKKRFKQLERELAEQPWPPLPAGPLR
UniProt P15313, whole entry, looked up: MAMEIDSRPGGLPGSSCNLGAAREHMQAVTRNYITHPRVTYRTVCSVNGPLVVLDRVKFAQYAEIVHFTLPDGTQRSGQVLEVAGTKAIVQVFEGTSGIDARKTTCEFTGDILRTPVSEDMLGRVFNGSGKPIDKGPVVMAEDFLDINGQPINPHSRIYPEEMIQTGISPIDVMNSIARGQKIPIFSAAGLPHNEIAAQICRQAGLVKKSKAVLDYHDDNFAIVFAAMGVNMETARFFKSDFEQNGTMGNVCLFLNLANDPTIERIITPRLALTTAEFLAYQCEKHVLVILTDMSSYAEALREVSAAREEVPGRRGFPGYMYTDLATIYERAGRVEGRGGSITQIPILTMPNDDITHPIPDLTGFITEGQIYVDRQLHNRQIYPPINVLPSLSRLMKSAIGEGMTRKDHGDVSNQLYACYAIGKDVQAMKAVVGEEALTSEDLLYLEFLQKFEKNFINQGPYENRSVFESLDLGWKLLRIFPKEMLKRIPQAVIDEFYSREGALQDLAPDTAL
UniProt Q6Y288: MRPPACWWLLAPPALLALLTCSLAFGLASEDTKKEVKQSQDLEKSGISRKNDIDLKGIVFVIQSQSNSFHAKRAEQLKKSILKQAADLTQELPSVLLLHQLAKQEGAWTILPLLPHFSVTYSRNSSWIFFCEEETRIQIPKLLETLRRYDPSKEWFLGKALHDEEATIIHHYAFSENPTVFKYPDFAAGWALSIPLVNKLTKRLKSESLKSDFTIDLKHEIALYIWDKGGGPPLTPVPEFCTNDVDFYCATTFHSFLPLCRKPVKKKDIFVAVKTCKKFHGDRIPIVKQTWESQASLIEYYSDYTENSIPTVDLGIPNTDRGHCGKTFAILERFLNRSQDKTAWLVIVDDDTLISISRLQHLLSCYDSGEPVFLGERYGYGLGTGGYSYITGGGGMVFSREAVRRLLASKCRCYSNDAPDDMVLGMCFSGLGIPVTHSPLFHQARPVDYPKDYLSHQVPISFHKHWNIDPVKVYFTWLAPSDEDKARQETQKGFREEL
UniProt P24539: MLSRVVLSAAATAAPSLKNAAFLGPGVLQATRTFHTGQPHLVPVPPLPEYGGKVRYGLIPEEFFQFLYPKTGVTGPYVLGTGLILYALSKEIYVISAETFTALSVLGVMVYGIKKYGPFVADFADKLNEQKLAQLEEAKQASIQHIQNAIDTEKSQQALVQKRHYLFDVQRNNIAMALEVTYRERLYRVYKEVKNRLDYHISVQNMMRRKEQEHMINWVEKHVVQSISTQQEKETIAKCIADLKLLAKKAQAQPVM
UniProt P36542: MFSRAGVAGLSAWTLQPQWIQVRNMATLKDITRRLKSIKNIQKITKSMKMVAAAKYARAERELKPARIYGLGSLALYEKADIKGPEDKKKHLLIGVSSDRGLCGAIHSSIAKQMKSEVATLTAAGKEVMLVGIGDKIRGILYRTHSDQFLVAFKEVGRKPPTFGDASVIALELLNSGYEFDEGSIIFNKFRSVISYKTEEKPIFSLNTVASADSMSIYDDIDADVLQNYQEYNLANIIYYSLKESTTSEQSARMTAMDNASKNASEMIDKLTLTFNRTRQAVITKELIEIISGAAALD
UniProt Q8N9N2: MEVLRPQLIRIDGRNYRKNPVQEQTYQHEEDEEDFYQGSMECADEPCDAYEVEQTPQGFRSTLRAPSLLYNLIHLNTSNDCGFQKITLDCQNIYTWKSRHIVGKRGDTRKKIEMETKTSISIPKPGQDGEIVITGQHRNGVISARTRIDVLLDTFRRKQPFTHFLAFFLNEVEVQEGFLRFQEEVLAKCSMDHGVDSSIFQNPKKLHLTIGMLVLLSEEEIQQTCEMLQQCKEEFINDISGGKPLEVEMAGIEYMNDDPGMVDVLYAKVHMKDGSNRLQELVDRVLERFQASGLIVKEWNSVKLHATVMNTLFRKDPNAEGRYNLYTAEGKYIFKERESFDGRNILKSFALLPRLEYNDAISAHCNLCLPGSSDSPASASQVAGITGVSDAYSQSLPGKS
UniProt Q9Y4P1: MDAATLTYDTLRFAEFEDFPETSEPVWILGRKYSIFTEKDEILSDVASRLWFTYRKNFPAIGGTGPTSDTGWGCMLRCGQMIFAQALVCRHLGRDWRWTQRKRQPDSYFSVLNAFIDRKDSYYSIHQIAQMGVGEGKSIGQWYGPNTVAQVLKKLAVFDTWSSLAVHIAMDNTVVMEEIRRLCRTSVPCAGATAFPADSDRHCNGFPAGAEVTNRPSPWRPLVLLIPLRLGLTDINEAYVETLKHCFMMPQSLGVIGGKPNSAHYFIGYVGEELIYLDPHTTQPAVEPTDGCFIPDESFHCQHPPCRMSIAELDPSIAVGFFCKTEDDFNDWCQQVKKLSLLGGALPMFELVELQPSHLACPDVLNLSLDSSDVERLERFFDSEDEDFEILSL
UniProt O95352: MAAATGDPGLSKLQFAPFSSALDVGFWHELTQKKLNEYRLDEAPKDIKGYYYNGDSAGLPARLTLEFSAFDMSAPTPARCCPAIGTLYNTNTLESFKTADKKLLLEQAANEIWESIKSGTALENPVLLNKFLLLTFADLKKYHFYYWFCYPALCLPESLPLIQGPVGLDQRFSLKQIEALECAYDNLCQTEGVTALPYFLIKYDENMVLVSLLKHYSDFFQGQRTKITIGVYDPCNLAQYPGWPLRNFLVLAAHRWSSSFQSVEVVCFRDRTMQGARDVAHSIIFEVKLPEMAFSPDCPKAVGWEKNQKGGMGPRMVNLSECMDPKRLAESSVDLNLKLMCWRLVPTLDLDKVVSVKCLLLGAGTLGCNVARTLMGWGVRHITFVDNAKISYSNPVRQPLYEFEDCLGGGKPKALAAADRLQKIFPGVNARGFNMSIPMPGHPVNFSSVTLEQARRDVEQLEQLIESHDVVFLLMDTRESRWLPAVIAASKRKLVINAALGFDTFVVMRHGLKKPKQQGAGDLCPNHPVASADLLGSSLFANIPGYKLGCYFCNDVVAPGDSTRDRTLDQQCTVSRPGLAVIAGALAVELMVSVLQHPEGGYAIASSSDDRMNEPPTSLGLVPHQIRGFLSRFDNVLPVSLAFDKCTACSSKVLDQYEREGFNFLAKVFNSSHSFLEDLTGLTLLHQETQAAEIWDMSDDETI

What was measured:
Assay in all cases: log2 fold change, soluble protein after heating vs DMSO (PISA); higher = thermal stabilisation; K562 lysate, 10 uM; active = over 0.2 and 3.5 SD of the protein, either way, in both replicates (recomputed)
[1] = compound: CS(=O)(=O)CCNCc1ccc(-c2ccc3ncnc(Nc4ccc(OCc5cccc(F)c5)c(Cl)c4)c3c2)o1 [lapatinib]
Summary of the method: (§1)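 Values give the log-two fold change in thermal stability against solvent controls, from duplicates. Crude K562 extract at 1 mg/mL protein, made by dounce homogenisation in PBS pH 7.4 with 1 mM MgCl2, was treated with 10 μM compound for 30 min. After 3 min heating across 48°C-58°C, aliquots were pooled, adjusted to 0.5% NP-40 at 4°C and centrifuged at 21,000xg for 90 min. The supernatant was measured by TMTpro 16plex LC-MS/MS with channel sums equalised.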

[2] = compound: CS(=O)(=O)N1CCN(Cc2cc3nc(-c4cccc5[nH]ncc45)nc(N4CCOCC4)c3s2)CC1 [pictilisib]
Summary of the method: as §1

[3] = compound: C[C@@H](Oc1cc(-c2cnn(C3CCNCC3)c2)cnc1N)c1c(Cl)ccc(F)c1Cl [crizotinib]
Summary of the method: as §1

[4] = compound: C[C@H](C1=CC=C(C=C1)C(=O)NC2=C3C=CNC3=NC=C2)N
Summary of the method: as §1

[5] = compound: C[C@H](Nc1ncnc2nc[nH]c12)c1cc2cccc(Cl)c2c(=O)n1-c1ccccc1 [duvelisib]
Summary of the method: as §1

[6] = compound: Cc1cc(Nc2cc(CN3CCOCC3)c3nc(C)c(Cc4ccc(Cl)cc4F)n3n2)n[nH]1 [gandotinib]
Summary of the method: as §1

[7] = compound: Cc1cc(Nc2cc(N3CCN(C)CC3)nc(Sc3ccc(NC(=O)C4CC4)cc3)n2)n[nH]1 [tozasertib]
Summary of the method: as §1

[8] = compound: Cc1ccc(-n2nc(C(C)(C)C)cc2NC(=O)Nc2ccc(OCCN3CCOCC3)c3ccccc23)cc1 [doramapimod]
Summary of the method: as §1

[9] = compound: Cc1ccc(NC(=O)c2ccc(CN3CC[C@H](N(C)C)C3)c(C(F)(F)F)c2)cc1Nc1nccc(-c2cncnc2)n1 [bafetinib]
Summary of the method: as §1

[10] = compound: Cc1cccc(CC(=O)N2CCc3c2ccc(-c2cn(C)c4ncnc(N)c24)c3F)n1
Summary of the method: as §1

[11] = compound: Cc1cn(-c2cc(NC(=O)c3ccc(C)c(Nc4nccc(-c5cccnc5)n4)c3)cc(C(F)(F)F)c2)cn1 [nilotinib]
Summary of the method: as §1

[12] = compound: Cc1nc(Nc2n[nH]c3c2CN(C(=O)N[C@H](CN(C)C)c2ccccc2)C3(C)C)c2sccc2n1
Summary of the method: as §1

[13] = compound: Cc1nc(Nc2ncc(C(=O)Nc3c(C)cccc3Cl)s2)cc(N2CCN(CCO)CC2)n1 [dasatinib]
Summary of the method: as §1

[14] = compound: Cc1ncc(-c2ccnc(Nc3ccc(S(C)(=O)=O)cc3)n2)n1C(C)C
Summary of the method: as §1

[15] = compound: Cn1cc(-c2ccc3c(c2)CCN3C(=O)Cc2cccc(C(F)(F)F)c2)c2c(N)ncnc21
Summary of the method: as §1

[16] = compound: Cn1cc(CNCC2CCN(c3ncc(C(=O)NO)cn3)CC2)c2ccccc21 [quisinostat]
Summary of the method: as §1

[17] = compound: Cn1cncc1[C@@](N)(c1ccc(Cl)cc1)c1ccc2c(c1)c(-c1cccc(Cl)c1)cc(=O)n2C [tipifarnib]
Summary of the method: as §1

[18] = compound: NC(=O)Nc1cc(-c2cccc(F)c2)sc1C(=O)N[C@H]1CCCNC1
Summary of the method: as §1

[19] = compound: NC(=O)c1cnc(N[C@@H]2CCCC[C@@H]2N)nc1Nc1cccc(-n2nccn2)c1
Summary of the method: as §1

[20] = compound: NC1(c2ccc(-c3nc4ccn5c(=O)[nH]nc5c4cc3-c3ccccc3)cc2)CCC1
Summary of the method: as §1

| Target | log2 fold change [1] | log2 fold change [2] | log2 fold change [3] | log2 fold change [4] | log2 fold change [5] | log2 fold change [6] | log2 fold change [7] | log2 fold change [8] | log2 fold change [9] | log2 fold change [10] | log2 fold change [11] | log2 fold change [12] | log2 fold change [13] | log2 fold change [14] | log2 fold change [15] | log2 fold change [16] | log2 fold change [17] | log2 fold change [18] | log2 fold change [19] | log2 fold change [20] |
| --- | --- | --- | --- | --- | --- | --- | --- | --- | --- | --- | --- | --- | --- | --- | --- | --- | --- | --- | --- | --- |
| ATP5F1B (UniProt P06576) | inactive: -0.022 | inactive: -0.006 | inactive: 0.025 | inactive: -0.005 | inactive: 0.008 | inactive: 0.015 | inactive: -0.021 | inactive: -0.018 | inactive: 0.02 | inactive: -0.008 | inactive: 0.006 | inactive: -0.018 | inactive: -0.004 | inactive: -0.01 | inactive: -0.017 | inactive: 0.014 | inactive: -0.003 | inactive: -0.002 | inactive: 0.001 | inactive: 0.017 |
| ATE1 isoform 2 (UniProt O95260) | inactive: 0.021 | inactive: -0.058 | inactive: 0.024 | inactive: -0.089 | inactive: -0.051 | inactive: 0.076 | inactive: -0.003 | inactive: -0.071 | inactive: -0.093 | inactive: 0.029 | inactive: -0.099 | inactive: -0.006 | inactive: 0.069 | inactive: -0.032 | inactive: 0.017 | inactive: -0.014 | inactive: 0.025 | inactive: 0.034 | inactive: -0.002 | inactive: 0.014 |
| ATP6AP1 (UniProt Q15904) | inactive: -0.044 | inactive: -0.042 | inactive: 0.051 | inactive: -0.076 | inactive: 0.044 | inactive: 0.035 | inactive: -0.039 | inactive: -0.015 | inactive: 0.022 | inactive: 0.081 | inactive: 0.004 | inactive: 0.001 | inactive: 0.016 | inactive: -0.067 | inactive: -0.031 | inactive: 0.082 | inactive: -0.036 | inactive: 0.007 | inactive: 0.02 | inactive: -0.036 |
| ASB6 (UniProt Q9NWX5) | inactive: -0.04 | inactive: -0.029 | inactive: 0.01 | inactive: 0.093 | inactive: 0.008 | inactive: -0.065 | inactive: -0.159 | inactive: 0.004 | inactive: -0.055 | inactive: -0.028 | inactive: -0.024 | inactive: 0.01 | inactive: 0.01 | inactive: 0.029 | inactive: -0.025 | inactive: -0.002 | inactive: 0.041 | inactive: -0.01 | inactive: 0.016 | inactive: 0.08 |
| ATP23 (UniProt Q9Y6H3) | inactive: -0.042 | inactive: -0.054 | inactive: 0.073 | inactive: 0.134 | inactive: 0.009 | inactive: -0.216 | inactive: 0.01 | inactive: 0 | inactive: 0.058 | inactive: -0.055 | inactive: -0.019 | inactive: 0.006 | inactive: -0.016 | inactive: -0.01 | inactive: -0.032 | inactive: 0.171 | inactive: 0.002 | inactive: -0.011 | inactive: 0.03 | inactive: 0.016 |
| ATG13 isoform 2 (UniProt O75143) | inactive: 0.018 | inactive: 0.014 | inactive: -0.022 | active: -0.271 | inactive: 0.016 | inactive: 0.172 | inactive: 0.05 | inactive: 0.049 | inactive: -0.123 | inactive: 0.137 | inactive: -0.034 | inactive: 0.036 | inactive: 0.002 | inactive: 0.028 | inactive: -0.069 | inactive: -0.052 | inactive: -0.018 | inactive: 0.059 | inactive: 0 | inactive: -0.014 |
| ATP13A2 (UniProt Q9NQ11) | inactive: -0.04 | inactive: -0.014 | inactive: 0.078 | inactive: -0.054 | inactive: 0.043 | inactive: -0.03 | inactive: -0.008 | inactive: 0.017 | inactive: -0.064 | inactive: 0 | inactive: -0.017 | inactive: -0.076 | inactive: -0.013 | inactive: 0.056 | inactive: 0.04 | inactive: -0.001 | inactive: 0.035 | inactive: -0.017 | inactive: 0.049 | inactive: -0.012 |
| ATP6V1B1 (UniProt P15313) | inactive: -0.028 | inactive: -0.028 | inactive: -0.035 | inactive: -0.232 | inactive: -0.001 | inactive: 0.099 | inactive: 0 | inactive: 0.042 | inactive: -0.044 | inactive: 0.129 | inactive: -0.024 | inactive: 0.029 | inactive: 0.034 | inactive: -0.045 | inactive: -0.021 | inactive: -0.029 | inactive: -0.036 | inactive: 0.01 | inactive: 0.019 | inactive: 0.008 |
| B3GLCT (UniProt Q6Y288) | inactive: -0.016 | inactive: -0.013 | inactive: 0.019 | inactive: -0.058 | inactive: -0.059 | inactive: 0.034 | inactive: 0.002 | inactive: 0.006 | inactive: 0.043 | inactive: 0.021 | inactive: 0.014 | inactive: -0.071 | inactive: -0.002 | inactive: 0.058 | inactive: -0.013 | inactive: -0.051 | inactive: 0.125 | inactive: 0.031 | inactive: 0.008 | inactive: 0.002 |
| ASPH (UniProt Q12797) | inactive: -0.035 | inactive: -0.012 | inactive: -0.025 | inactive: 0.048 | inactive: -0.022 | inactive: -0.04 | inactive: 0.037 | inactive: 0.008 | inactive: 0.029 | inactive: 0.005 | inactive: -0.033 | inactive: -0.025 | inactive: 0.089 | inactive: 0.011 | inactive: -0.019 | inactive: -0.02 | inactive: 0.004 | inactive: -0.005 | inactive: -0.009 | inactive: -0.013 |
| ATP5PB (UniProt P24539) | inactive: -0.033 | inactive: -0.019 | inactive: 0.048 | inactive: 0.032 | inactive: -0.002 | inactive: -0.019 | inactive: -0.018 | inactive: -0.033 | inactive: 0.024 | inactive: -0.036 | inactive: 0.004 | inactive: -0.017 | inactive: 0.037 | inactive: 0.009 | inactive: 0 | inactive: 0.036 | inactive: 0.026 | inactive: -0.042 | inactive: 0.004 | inactive: 0.02 |
| ATP5F1C (UniProt P36542) | inactive: -0.004 | inactive: 0.016 | inactive: 0.032 | inactive: 0.01 | inactive: 0.007 | inactive: 0.007 | inactive: 0.025 | inactive: 0.003 | inactive: 0.038 | inactive: -0.002 | inactive: -0.013 | inactive: 0.012 | inactive: 0.034 | inactive: -0.005 | inactive: 0.009 | inactive: -0.01 | inactive: 0.005 | inactive: 0.013 | inactive: -0.001 | inactive: -0.008 |
| ASCC1 isoform 2 (UniProt Q8N9N2) | inactive: -0.003 | inactive: -0.023 | inactive: -0.054 | inactive: -0.056 | inactive: -0.013 | inactive: -0.008 | inactive: 0.014 | inactive: 0.123 | inactive: -0.068 | inactive: 0.039 | inactive: 0.003 | inactive: 0.006 | inactive: 0.015 | inactive: -0.024 | inactive: 0.008 | inactive: -0.067 | inactive: 0.031 | inactive: 0.058 | inactive: 0.013 | inactive: -0.038 |
| ATG4B (UniProt Q9Y4P1) | inactive: 0.012 | inactive: -0.042 | inactive: -0.087 | inactive: 0.114 | inactive: 0.01 | inactive: -0.128 | inactive: -0.013 | inactive: 0.004 | inactive: -0.008 | inactive: -0.059 | inactive: 0.045 | inactive: 0.001 | inactive: -0.049 | inactive: 0.008 | inactive: 0.044 | inactive: -0.055 | inactive: -0.019 | inactive: 0.024 | inactive: -0.05 | inactive: 0.005 |
| ATXN2L isoform 3 (UniProt Q8WWM7) | inactive: 0.023 | inactive: -0.004 | inactive: 0.038 | inactive: -0.022 | inactive: 0.014 | inactive: 0.006 | inactive: -0.016 | inactive: 0.013 | inactive: 0.002 | inactive: 0.003 | inactive: -0.033 | inactive: 0.019 | inactive: -0.045 | inactive: -0.005 | inactive: 0.004 | inactive: -0.018 | inactive: -0.015 | inactive: 0.011 | inactive: 0.014 | inactive: 0.006 |
| ATG7 (UniProt O95352) | inactive: 0.006 | inactive: -0.002 | inactive: -0.015 | inactive: -0.037 | inactive: 0 | inactive: -0.035 | inactive: -0.015 | inactive: 0.02 | inactive: -0.024 | inactive: 0.006 | inactive: 0.02 | inactive: -0.03 | inactive: -0.026 | inactive: -0.032 | inactive: 0.037 | inactive: -0.039 | inactive: 0.03 | inactive: 0.058 | inactive: 0.01 | inactive: -0.02 |

Complete entries from above. Values in the order: log2 fold change [1]	log2 fold change [2]	log2 fold change [3]	log2 fold change [4]	log2 fold change [5]	log2 fold change [6]	log2 fold change [7]	log2 fold change [8]	log2 fold change [9]	log2 fold change [10]	log2 fold change [11]	log2 fold change [12]	log2 fold change [13]	log2 fold change [14]	log2 fold change [15]	log2 fold change [16]	log2 fold change [17]	log2 fold change [18]	log2 fold change [19]	log2 fold change [20]
B3GLCT (UniProt Q6Y288) as listed: inactive: -0.016	inactive: -0.013	inactive: 0.019	inactive: -0.058	inactive: -0.059	inactive: 0.034	inactive: 0.002	inactive: 0.006	inactive: 0.043	inactive: 0.021	inactive: 0.014	inactive: -0.071	inactive: -0.002	inactive: 0.058	inactive: -0.013	inactive: -0.051	inactive: 0.125	inactive: 0.031	inactive: 0.008	inactive: 0.002
ATP13A2 (UniProt Q9NQ11) as listed: inactive: -0.04	inactive: -0.014	inactive: 0.078	inactive: -0.054	inactive: 0.043	inactive: -0.03	inactive: -0.008	inactive: 0.017	inactive: -0.064	inactive: 0	inactive: -0.017	inactive: -0.076	inactive: -0.013	inactive: 0.056	inactive: 0.04	inactive: -0.001	inactive: 0.035	inactive: -0.017	inactive: 0.049	inactive: -0.012
